## Primary screen of a compound library

Amino acid sequences for entries named in this document (tags omitted).
UniProt I6X8D2, whole entry: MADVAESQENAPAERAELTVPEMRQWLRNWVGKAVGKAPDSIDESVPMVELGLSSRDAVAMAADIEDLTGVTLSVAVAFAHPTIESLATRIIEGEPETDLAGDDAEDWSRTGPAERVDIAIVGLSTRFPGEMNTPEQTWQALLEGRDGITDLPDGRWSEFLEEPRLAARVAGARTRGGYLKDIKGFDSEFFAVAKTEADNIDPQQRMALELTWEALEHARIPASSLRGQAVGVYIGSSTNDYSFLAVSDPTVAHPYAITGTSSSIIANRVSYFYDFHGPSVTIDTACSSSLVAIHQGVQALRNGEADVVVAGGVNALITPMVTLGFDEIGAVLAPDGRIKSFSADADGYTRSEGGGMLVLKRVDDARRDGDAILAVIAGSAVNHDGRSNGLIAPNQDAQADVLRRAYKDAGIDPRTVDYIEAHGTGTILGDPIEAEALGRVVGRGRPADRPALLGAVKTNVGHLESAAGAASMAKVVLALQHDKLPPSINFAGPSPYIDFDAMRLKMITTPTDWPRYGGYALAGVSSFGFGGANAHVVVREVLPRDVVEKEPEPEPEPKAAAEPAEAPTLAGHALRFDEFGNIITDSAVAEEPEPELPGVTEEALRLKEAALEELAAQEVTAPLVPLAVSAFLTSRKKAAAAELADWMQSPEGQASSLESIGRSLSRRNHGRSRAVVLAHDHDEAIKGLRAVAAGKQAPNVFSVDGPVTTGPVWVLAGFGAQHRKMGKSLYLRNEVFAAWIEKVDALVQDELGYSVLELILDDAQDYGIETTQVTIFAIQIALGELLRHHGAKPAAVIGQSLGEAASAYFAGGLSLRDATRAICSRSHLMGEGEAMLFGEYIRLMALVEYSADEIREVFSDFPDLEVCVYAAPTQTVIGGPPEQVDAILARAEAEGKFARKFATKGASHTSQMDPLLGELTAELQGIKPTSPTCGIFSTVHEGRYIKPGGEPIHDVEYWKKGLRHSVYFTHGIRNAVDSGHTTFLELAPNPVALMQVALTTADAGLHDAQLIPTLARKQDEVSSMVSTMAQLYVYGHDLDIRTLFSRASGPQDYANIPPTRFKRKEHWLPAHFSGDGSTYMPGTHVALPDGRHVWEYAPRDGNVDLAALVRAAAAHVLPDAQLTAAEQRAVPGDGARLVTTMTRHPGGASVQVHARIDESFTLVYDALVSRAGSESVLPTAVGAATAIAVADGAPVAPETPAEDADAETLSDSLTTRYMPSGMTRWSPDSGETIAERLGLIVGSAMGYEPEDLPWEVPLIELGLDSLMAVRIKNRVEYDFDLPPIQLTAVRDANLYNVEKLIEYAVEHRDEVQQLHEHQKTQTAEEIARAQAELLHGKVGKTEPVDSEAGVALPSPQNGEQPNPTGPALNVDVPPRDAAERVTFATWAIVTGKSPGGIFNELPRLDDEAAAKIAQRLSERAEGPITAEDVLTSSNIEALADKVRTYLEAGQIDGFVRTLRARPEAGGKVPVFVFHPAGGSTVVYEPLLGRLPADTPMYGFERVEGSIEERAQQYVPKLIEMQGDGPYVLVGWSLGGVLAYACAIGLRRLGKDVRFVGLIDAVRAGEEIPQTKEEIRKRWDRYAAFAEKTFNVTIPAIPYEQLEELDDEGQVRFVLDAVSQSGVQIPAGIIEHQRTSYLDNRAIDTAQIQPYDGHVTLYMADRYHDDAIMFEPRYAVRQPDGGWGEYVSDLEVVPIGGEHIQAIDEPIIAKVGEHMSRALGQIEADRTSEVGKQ

The values are deposited in ChEMBL (CHEMBL3988442, “University of Dundee, Small-Polar-MMV Screening Library” (2021)).

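Enzyme assay of the thioesterase domain of polyketide synthase 13; the read-out is not stated. Target: Polyketide synthase Pks13, Mycobacterium tuberculosis (UniProt I6X8D2). Concentration: 30 µM. The record gives no direction; the compounds picked for IC50 retests had high values, so higher reads as stronger inhibition. Of about 67,000 compounds tested this way, about 300 (0.46%) reached 50% or more in at least one test.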

The filed quantity is “Percent Effect” (%). The controls that fix the scale are not given in the record; negative values are as filed. Compounds were drawn at random from those tested, without regard to their results.

SMILES | effect
COCC1c2nnn(C)c2CCN1C(=O)Cc1ccccn1 (centres unmarked) | 9.509%
CC(C)(C)OC(=O)N1CCC(C(=O)NCc2ccccc2)C1 (centres unmarked) | -1.638%
CN(C(=O)CNc1ccc(C#N)cc1)C1CCN(c2ccccn2)CC1 | -13.23%
Cc1nc[nH]c1CN1CCOC(c2ccc(Cl)c(Cl)c2)C1 (centres unmarked) | -11.59%
CC1CN(Cc2ccc(-n3cccn3)cc2)CCO1 (centres unmarked) | 1.091%
Cc1ccc(C(=O)N2CCCCC2c2[nH]ncc2S(C)(=O)=O)cn1 (centres unmarked) | -4.052%
CN(C)CCn1ccnc1C1CCN(C(=O)CCC(F)(F)F)CC1 | -15.74%
Cc1cc(C)n(-c2cncc(NCCNC(=O)CC3CCCC3)n2)n1 | -10.34%
NC(=O)c1csc(C(=O)N2CCCC(n3ccnc3)C2)c1 (centres unmarked) | -45.07%
CC(=O)NCc1nnn2c1CN(c1ncccn1)CCC2 | -9.045%
CC(C(=O)N1CCn2cncc2C1)N1C[C@@H](C)O[C@@H](C)C1 (some centres unmarked) | -22.66%
CC(C)c1cc(C(=O)NCCN2CCCCC2CO)on1 (centres unmarked) | -27.64%
C=C(C)CN(CC)Cc1nc(CC)no1 | -32.52%
CCn1c(SC)nnc1C1CCN(C(=O)N2CCCC2)CC1 | 2.893%
Cc1ncnc2c1CCN(C(=O)N(C)C)CC2 | 8.766%
CC(=O)N1[C@H](Cn2cncn2)C[C@@H]2CN(Cc3cccnc3)CC[C@@H]21 | -29.61%
COCc1ncc(CN(Cc2ccncc2)Cc2ccc(C)s2)cn1 | -4.475%
CCc1ncc2c(n1)CN(Cc1nc(-c3cccnc3)no1)CC2 | -15.92%
O=C(CCn1ccc2ccc(Br)cc21)/N=c1\[nH]nc(C2CCCO2)s1 (centres unmarked) | 12.07%
Cc1ccccc1-n1cc(CNC(=O)CC2C(=O)NCCN2C)cn1 (centres unmarked) | -0.2856%
Cc1cccc(CO[C@@H]2C[C@H]3CN(C(=O)c4cnccn4)CCN3C2)n1 | -32.18%
Cc1csc(CNc2cnn(CC(C)C)c2)n1 | -0.7361%
COc1ccc(CN2CCC3(CC2)CC(CC(=O)NC(C)C)CO3)cc1 (centres unmarked) | -33.85%
O=C(CCn1ccc2cc(Br)ccc21)NCc1ccc(C(=O)O)cc1 | -20.12%
CNS(=O)(=O)c1ccc(C(=O)N2CCCC2c2ccccc2C)o1 (centres unmarked) | -14.72%
N#Cc1cccc(S(=O)(=O)NC(=O)COCC(F)(F)F)c1 | -19.63%
CCOC(=O)NC1CCCN(c2cncc(Br)c2)C1 (centres unmarked) | 18.65%
COCC(=O)NS(=O)(=O)c1ccc(F)c(F)c1 | -29.59%
CC(C)N1C[C@H](NC(=O)c2coc(COc3cccc(F)c3)n2)[C@@H](O)C1 | -15.46%
CC(C)c1nn(C)c(Cl)c1CNCc1cccnc1N(C)C | -33.06%
CN(Cc1cnn(C)c1)C(=O)CCC(=O)c1ccc2c(c1)OCCO2 | -2.974%
N#CC(NC(=O)CCCOc1cccnc1)c1ccc(F)cc1F (centres unmarked) | -3.741%
CN(C)c1cc(C2CCCN(C(=O)c3noc4c3CCCC4)C2)ccn1 (centres unmarked) | 6.997%
Cc1ccc(CCNC(=O)CC2COCCN2S(=O)(=O)N(C)C)o1 (centres unmarked) | 5.997%
CC1CN(C(=O)NCc2cccc(C#N)c2)CCN1CC(F)(F)F (centres unmarked) | -15.13%
O=C(CCc1cscn1)N1CCCC(n2ccnc2)C1 (centres unmarked) | -29.3%
CN(C)Cc1cc(-c2nccn2CCn2cccn2)ccc1O | -15%
CCN(Cc1nccn1C)C(=O)c1ccc(NCCc2c[nH]cn2)nc1 | -2.507%
CO[C@H]1CCN(Cc2cnn(C)c2)[C@@H]2CN(Cc3cccnc3)C[C@H]12 | -20.52%
CN1CC(=O)N(c2cccnc2)Cc2c(NC3CC3)ncnc21 | -14.32%
Cc1cn(-c2ccccc2)nc1NS(=O)(=O)c1ccc(C(=O)O)cc1F | 11.23%
O=C(NCCC1CCCCO1)c1cc(COc2ccccc2F)[nH]n1 (centres unmarked) | -29.33%
Cc1nn(CCO)c(C)c1CNC1CCc2c(F)cccc21 (centres unmarked) | -17.56%
CN1CC(c2cc(O)nc(NCc3ccc(Cl)cc3)n2)CC1=O (centres unmarked) | 7.537%
CCc1ccc(C(COC)NC(=O)c2ccsc2)o1 (centres unmarked) | -11.92%
CCN1CCCC(O)(CNCc2ccccn2)C1 (centres unmarked) | -9.087%
N#Cc1ccc(CN2CCCC3(Cc4ccccc4CNC3=O)C2)cc1 (centres unmarked) | -19.86%
CNC(=O)COC(=O)c1ccn(-c2ccc(Cl)c(Cl)c2)n1 | -17.45%
O=C(Cc1ccccc1Cl)NCCN1CCC(c2cccs2)CC1 | -13.19%
c1ccc(CN2CCC(CCNc3ncnc4c3CCNCC4)C2)cc1 (centres unmarked) | 4.008%
c1cncc(CN2CCCC3(COCCN(c4cnccn4)C3)C2)c1 (centres unmarked) | -15.06%
NC(=O)C1CN(c2ccc(F)cc2)CCN1 (centres unmarked) | 0.8976%
Cc1cnn(C2CCCN(C(=O)Cc3ccc(C#N)cc3)C2)c1 (centres unmarked) | -7.78%
CN(C)C(=O)N1Cc2nnn(C)c2C(COCC2CC2)C1 (centres unmarked) | -9.08%
CNC(=O)C1CCN(C(=O)c2coc(COc3ccc(OC)cc3)n2)C1 (centres unmarked) | 4.08%
Cc1ccc(CNCC2Cn3nnc(-c4cccc(F)c4)c3CO2)o1 (centres unmarked) | -51.46%
COc1ccccc1CC(C)CC(=O)O (centres unmarked) | -14.11%
CC(C)(C)c1noc(CCCC(=O)N2CCNC(=O)CC2)n1 | -9.521%
CCCn1ccnc1-c1cccc(NC(=O)C2CCCOC2)c1 (centres unmarked) | -11.61%
CCN(C)c1ncnc2c1CCN(C(=O)c1ccno1)CC2 | -9.989%
CN(C)CC(=O)N1Cc2cc(N(C)C)ccc2C1c1cnco1 (centres unmarked) | -29.09%
CNC(=O)[C@@H]1[C@H]2CNCCN2C[C@H]1c1ccccc1 | -2.556%
CNC(=O)N1CCOCC1c1c(C)nn(C)c1C (centres unmarked) | 6.436%
CC(C)c1noc(C(C)N2CCC(c3nc4ccccc4[nH]3)CC2)n1 (centres unmarked) | 6.802%
CNC(=O)CN1CCC(NC(=O)CC(C)CCc2ccccc2)CC1 (centres unmarked) | -13.87%
COc1cccc(C2CCCN2C(=O)CC2=CSC3=NCCCN23)c1 (centres unmarked) | -13.71%
CC(=O)N1N=C(c2ccccc2)OC1C(=O)NCCc1cccc(Cl)c1 (centres unmarked) | -17.14%
CO[C@H]1CC[C@H]2[C@H]1OCCN2C(=O)C1=CCCC1 | 31.2%
NC(=O)N1C[C@H](NC(=O)c2cscn2)[C@@H]2OCCC[C@@H]21 | -15.05%
Cn1nc(Cn2ccnc2)c2c1CN(c1nccs1)C2 | -73.63%
O=c1ccc2c([nH]1)CCC(NCc1ccncc1)C2 (centres unmarked) | -41.19%
O=C(O)c1nc(SCc2ccc(F)cc2)ncc1Br | 8.321%
CCCn1ncc2c(C(=O)Nc3cnn(CC)c3C)cc(C3CC3)nc21 | -9.025%
O=C(O)c1ccc(=O)n(CC(c2ccc(F)cc2)N2CCCCCC2)c1 (centres unmarked) | 3.528%
O=C(CN1CCCC1Cn1cncn1)NCCOc1ccc(F)cc1 (centres unmarked) | -24.99%
Cc1cc(CNC(=O)NCc2cccs2)ccc1S(C)(=O)=O | -6.107%
COCCNc1cc(-c2cccc(C(=O)O)c2C)c2cc[nH]c2n1 | 14.39%
C[C@@H]1CN(C(=O)c2ccsc2)C[C@]12CCN(c1ccsc1)C2=O | -29.2%
O=C(C1CC=CC1)N1C[C@H]2CN(Cc3ccncc3)C(=O)[C@H]2C1 | -10.51%
Cc1occc1C(=O)N1CCC2(CCC(C(=O)NCC3CC3)O2)CC1 (centres unmarked) | 0.08279%
O=C1CCC2(CCCN(C(=O)Cc3ccccn3)C2)N1 (centres unmarked) | -24.91%
COC(=O)[C@@H]1Cc2ncn(C)c2CN1S(=O)(=O)Cc1ccccc1 | 16.76%
CC(=O)NC1CCc2ccc(S(=O)(=O)NCc3ncccc3C)cc21 (centres unmarked) | 9.311%
COc1ccc(S(=O)(=O)NC(=O)COc2ccc3c(c2)CCC3)cc1 | 4.905%
Cc1nn(-c2ccccc2Cl)c(C)c1CCC(=O)O | 2.282%
CN(Cc1ccccc1)C1(C(=O)O)Cc2ccccc2C1 | -12.46%
c1coc(-c2nnc(CN3CCCC3Cn3cncn3)o2)c1 (centres unmarked) | -17.63%

The first 9 entries again:

Result for COCC1c2nnn(C)c2CCN1C(=O)Cc1ccccn1 (centres unmarked) was 9.509%.
Result for CC(C)(C)OC(=O)N1CCC(C(=O)NCc2ccccc2)C1 (centres unmarked) was -1.638%.
Result for CN(C(=O)CNc1ccc(C#N)cc1)C1CCN(c2ccccn2)CC1 was -13.23%.
Result for Cc1nc[nH]c1CN1CCOC(c2ccc(Cl)c(Cl)c2)C1 (centres unmarked) was -11.59%.
Result for CC1CN(Cc2ccc(-n3cccn3)cc2)CCO1 (centres unmarked) was 1.091%.
Result for Cc1ccc(C(=O)N2CCCCC2c2[nH]ncc2S(C)(=O)=O)cn1 (centres unmarked) was -4.052%.
Result for CN(C)CCn1ccnc1C1CCN(C(=O)CCC(F)(F)F)CC1 was -15.74%.
Result for Cc1cc(C)n(-c2cncc(NCCNC(=O)CC3CCCC3)n2)n1 was -10.34%.
Result for NC(=O)c1csc(C(=O)N2CCCC(n3ccnc3)C2)c1 (centres unmarked) was -45.07%.